# From PubChem BioAssay AID1508600 (Functional Genomics Laboratory (NCATS/FGL), 2020)
# The campaign covered roughly 53,000 sequences. About 3,700 (7%) were called active.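 Rule for the calls: active = gene knockdowns whose robust z-score for IL-1 alpha signal is at least 2 or at most -2, so actives lie on both sides; inactive = the rest.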 The list shows a part of the results.
# Experiment: Components of the Cytosolic LPS Sensing Pathway: Gene Identification via Genome-wide siRNA Screen;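 note: robust z of the log signal after scaling to non-targeting control siRNA wells of the plate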
# Settings: RAW264.7 macrophages, IL-1a HTRF, actives lie on both sides, screened at 100 nM (by protocol), cells primed 5 h with Pam3CSK4 first
# Method in brief: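 RAW264.7; siRNA 100 nM final, RNAiMAX, 48h 37 degrees C; Pam3CSK4 5 h; LipidA + TransIT-TKO 24 h; IL-1a HTRF; CellTiter-Glo viability; robust z vs negative-control median.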
row,Sequence,z-score
1,GUUGCUGUAAACCCUGCUGTT against Krtap5-4,inactive: -0.525
2,GGACAUCUUGUGUCUGUGCTT against Reg3g,inactive: 0.111
3,GGAUGUACAGUGCAUUUUGTT against Ankrd24,inactive: -0.344
4,GGUCGUGAUAAACAUAUCATT against Cep85,inactive: -1.1
5,GGAAUCCUAGGUUGCAUUATT against Mycbpap,inactive: -0.379
6,GAUGGUAGAGUCUACAUCATT against Hcst,inactive: -0.836
7,GGAUGCAUGGCCCAACUUUTT against Olfr915,inactive: 1.64
8,GCAACAUGAGGUAUAUUGGTT against Sema4d,inactive: -0.688
9,GCCUCAUGGCUUAACUUUGTT against Acads,inactive: -0.743
10,GGUGCUUGUGGGUAACAAGTT against Rab33a,inactive: 1.94
11,GGUUUUCACUAUUUCAACUTT against Olfr187,inactive: -1.06
12,CGUUUGCUCUAAAGCCAGGTT against Smagp,inactive: 0.886
13,GCCAAACUUAGCGUGCUCATT against Dgkk,inactive: 0.607
14,CGAUCAUCAUUGGUUGCGGTT against Fam24b,inactive: 0.176
15,GCCUUUUAUAUAGAAGACCTT against Pheta2,inactive: 0.679
16,GGAGAUAAAUCCUUUGCAUTT against Zfp119a,inactive: 1.74
17,GCCUUUGGAAGUUCAGAACTT against Rnf216,inactive: -1.07
18,GGAGCCUGACAUCAUUAUCTT against Mmp25,inactive: -0.546
19,GGGCAAUGAUAUUGUUGUGTT against Ilk,inactive: -0.787
20,AGAGUGGUAAAACUGAUUATT against Tas2r129,inactive: 0.513
21,GGCCUUUUGGCUUUGAUCUTT against Hoxb1,inactive: -1.86
22,CGGGCAUUAAGGUAUGGAATT against Lrrc29,inactive: 1.31

# Part of the list above, as tab-separated lines:
row	Sequence	z-score
3	GGAUGUACAGUGCAUUUUGTT against Ankrd24	inactive: -0.344
4	GGUCGUGAUAAACAUAUCATT against Cep85	inactive: -1.1
5	GGAAUCCUAGGUUGCAUUATT against Mycbpap	inactive: -0.379

# Continued:

row,Sequence,z-score
1,GGAUCUAGAGAUUGAAAAUTT against Uaca,inactive: 0.182
2,CCCACUACCGUCUUUCCUATT against Thoc6,inactive: -1.73
3,GGAUGAUGUUCCCAUGCAATT against Cdca7l,inactive: -0.45
4,GGCAUGUCAGUGAAAUUUUTT against Vmn1r174,inactive: -0.305
5,GGCAACUUGGAUGUUUUGATT against Pramel39,inactive: 0.0425
6,GGUCCAGUCAGGAAACACATT against Flacc1,inactive: -0.931
7,CCGAAGUUCACCCUAAAGGTT against Lmna,inactive: -0.485
8,GGUGUGUGAUAAAUCUUUUTT against Zfp53,inactive: 1.52
9,GGCUGCCAAGAAAAUCUAUTT against Rab14,inactive: 0.363
10,CCAUUCUACGAGAAUUGUATT against Dync1i2,inactive: -0.326
11,GGGACUAAGAUGAAGCUGATT against Fam43a,active: -2.18
12,GGCUGCUUAGCUUUAAUGGTT against Ccdc177,inactive: -0.674
13,GCUUUUUAGAAUCUCCGAATT against Sel1l,inactive: 0.584
14,GCCUUGUAGACCAGUUCUATT against 9530085L02Rik,active: 2.15
15,GUUUCAUGAGUGCCUCCAUTT against Olfr1446,inactive: 1.51
16,GGAGGAAGAAACAAAAAAATT against Nolc1,inactive: 0.583
17,GGACAGUAUAAAACUCCAATT against Atg3,inactive: 0.104
18,CGACCUGCUCUCAUAGCUUTT against Sycn,inactive: -0.702
19,GCAAUGUGCACGAUGAUGATT against Pik3cg,inactive: -0.79
20,GCUUCCACAUAUUUUUUGCTT against Olfr1467,inactive: -0.994
21,CAAGAAAAUGCUCUCUGUUTT against Gm1553,inactive: -1.51
22,GCACCUACGUUUGUUGGAUTT against Clasp2,inactive: 1.4

# Some of the entries so far, with tabs:
row	Sequence	z-score
2	CCCACUACCGUCUUUCCUATT against Thoc6	inactive: -1.73
4	GGCAUGUCAGUGAAAUUUUTT against Vmn1r174	inactive: -0.305
9	GGCUGCCAAGAAAAUCUAUTT against Rab14	inactive: 0.363
12	GGCUGCUUAGCUUUAAUGGTT against Ccdc177	inactive: -0.674
13	GCUUUUUAGAAUCUCCGAATT against Sel1l	inactive: 0.584
18	CGACCUGCUCUCAUAGCUUTT against Sycn	inactive: -0.702

# The list goes on.

row,Sequence,z-score
1,GCUCCACAAGAUGUAAAGGTT against Il21,inactive: 0.11
2,GCGCAGGUUGGAUGAAUGUTT against Psme3,inactive: -0.433
3,GCAUUCAGUUGGGACAGUATT against Hsh2d,inactive: 0.443
4,GGGAUAUCCUACCAGGUCATT against Ppard,inactive: -1.24
5,GGAAAUGCCACCAUUGUUATT against Olfr514,inactive: 0.33
6,CCCUAACAUUGAGAUGAUUTT against Peg10,inactive: -0.369
7,GGCAAAACAAAAACUCUACTT against 1700028P14Rik,inactive: -0.834
8,GGCUUCAUGCCUUAUCCACTT against Fam166a,inactive: -0.314
9,GGCAACUGUUACUUUUAAUTT against Proser1,inactive: -0.476
10,GGCAGCUAAACUGUGUUAUTT against Tex11,inactive: -1.36
11,CCCUGGUAUCUUACAUCGATT against Zdhhc19,inactive: -0.553
12,GGAGAGUGUAUCCUAUCUGTT against Snapc3,inactive: -1.21
13,GGUGUACCAAGUGUUGAAGTT against Pold4,inactive: 1.56
14,CCGUAGUCCUGAAGAUUCCTT against Olfr427,inactive: -0.479
15,GGGCAUAUGGAGAACACAUTT against Dmrt1,inactive: 0.565
16,GGAUGUACUUUGUUAAGGCTT against Tert,active: 2.78
17,GGGAAAGACUGGAAAUCUUTT against Tmod3,inactive: 0.515
18,GCUGAAAUGGAGUAUUUGATT against Nf2,inactive: 0.283
19,GGAGCUGCUCCAGUUGAUATT against Col11a1,inactive: 0.443
20,GGAGAAGUUUGGGAAGAAATT against Gys2,inactive: 0.0239
21,CCUAGGGCUUUAGCUCUGATT against Msc,inactive: -0.75
22,GCAUAAUGCUGUCACCCUCTT against Aimp2,inactive: 0.984

row,Sequence,z-score
1,GGCUUUGUCGUUAAUUUUUTT against Auh,inactive: 0.322
2,GGAGUUUCGCAUGAGCCUGTT against Shroom1,inactive: -0.0803
3,CCCUAAAACUUCUAUCGAGTT against Eif6,inactive: -1.05
4,GGAGUCGUCACAGCAGAGATT against Stag2,inactive: -1.1
5,GGCUUUGCUACUUGGGAUATT against Wdr86,active: 3.16
6,GGAGGUGUUCAUUGAAGUCTT against Nudcd2,inactive: -0.356
7,GGGCAAUGCUCAUGAGUUATT against Vegfd,inactive: 0.729
8,GCAGUCGAGCAUGAAACAATT against Atp5pb,inactive: -1.23
9,GGGACUUGCCAGAAGAUGCTT against Nkapl,inactive: -0.111
10,GGAGUUCCAGCUGUUGCUGTT against Erfe,inactive: 0.646
11,GGGAGGCUCUGGUGAACAATT against Cyp2b13,inactive: 0.681
12,GGAUGGGAAGGUGAUUGUCTT against Gnb5,inactive: 1
13,GCAUUUCCUAGUGUCUAUUTT against Tmem139,inactive: 0.946
14,GGAAUGUUCACUGACAAAGTT against Gemin8,inactive: 1.18
15,GGUCCGAAAGGCAGCUAUATT against Fcer1g,active: -2.17
16,CCGACUAAGAAUCAGAGAATT against Ccdc77,inactive: 1.25
17,GGAUAAGAGAAAAACAGAATT against Ect2,inactive: 0.141
18,GGAGAAGAGAAAGAUUCUUTT against Dhx9,inactive: 0.724
19,GCAUUCAUACAUGUAACAGTT against Wdr70,inactive: 0.336
20,GUAGAGUGAUGAGAGGCCUTT against Vmn1r-ps8,inactive: -0.475
21,CCUUAAGCAGAGUUCAAAGTT against Timm22,inactive: 0.197
22,GGAGAUGAAGUCAUUGAAUTT against Casq1,inactive: -0.561

row,Sequence,z-score
1,GGGCUACAGCCUUGAAAACTT against Lyzl4,inactive: -0.0362
2,UCCAUCGACUGGGACUCUCTT against Nxpe5,inactive: 0.463
3,CGGGUAAUAAGGAUUUGGGTT against Cadm4,active: 2.05
4,CUAUGUGGUCACAAUAGAGTT against Olfr1360,inactive: 0.411
5,GGAAAGGGAGAUUUGUAAGTT against Hoxc4,inactive: 0.837
6,GCUGUUCUGCAAAACUGGATT against Rbpms,inactive: -1.36
7,GGUAUGUUUACCAUAGCUCTT against Tbx18,inactive: 0.503
8,CGAGACAAAGAAAGCAAGUTT against Trappc8,inactive: -0.937
9,GGAUCUGGACUUAAUGCUCTT against Tfeb,inactive: -0.383
10,GGAUGUUACUCCCUCAAAUTT against Tmbim7,inactive: 1.01
11,GCCACUACAUAUAAACAUCTT against Spag1,inactive: -0.0903
12,GCAUUAUUCUGAGGACACATT against Fhod3,inactive: 0.569
13,GGCAUACCGGAAACUUGCCTT against Dnajb13,inactive: -0.266
14,CCACCUUUCUCACAGAUAATT against Myo3b,inactive: 1.43
15,GCAAGAUACCAAAUGCAUATT against Zfp316,inactive: 0.198
16,GGAAGAAAAGACUUAUCGUTT against Jkamp,inactive: -0.663
17,GGGAGAAGCAGAAAGAACUTT against Rundc1,inactive: -0.342
18,GGAUCGAGACAAGGCCAAATT against Fes,active: 3.22
19,CCAAUGAUUUCCUGCUAAATT against Lst1,active: 3.21
